According to the supplement of paper PMC10689618:
Some of the results follow. Many values rest on one well or one pass, so single values are uncertain.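 Primary human fetal astrocytes engulfed labelled rat cortical synaptosomes, measured as a red/green ratio corrected for calcein live-cell signal and scaled to the plate median. Toxicity meant calcein falling over 30%; decreased phagocytosis meant below 70% of median above 5 µM.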

Legend:
Human fetal astrocytes [1] = assay: loss of total cells relative to no-compound high-control median (toxicity); higher = more toxic (fewer cells); settings: 24 h
Human fetal astrocytes [2] = assay: synaptosome phagocytosis (pHrodo/calcein intensity ratio) relative to plate median of data wells; higher = more phagocytosis; settings: 24 h

Row | SMILES | loss of total cells (Human fetal astrocytes [1]; 1.39 µM) | loss of total cells (Human fetal astrocytes [1]; 2.78 µM) | loss of total cells (Human fetal astrocytes [1]; 5.56 µM) | loss of total cells (Human fetal astrocytes [1]; 11.11 µM) | loss of total cells (Human fetal astrocytes [1]; 22.22 µM) | synaptosome phagocytosis (Human fetal astrocytes [2]; 1.39 µM) | synaptosome phagocytosis (Human fetal astrocytes [2]; 2.78 µM) | synaptosome phagocytosis (Human fetal astrocytes [2]; 5.56 µM) | synaptosome phagocytosis (Human fetal astrocytes [2]; 11.11 µM) | synaptosome phagocytosis (Human fetal astrocytes [2]; 22.22 µM)
1 | CC(=O)OC1CCC23C(=O)OC45CCC(C6=CC(=O)OC6)C4(C)CCC2C5CCC3(O)C1 (stereo not given) | 19.1% | 19.9% | 18.8% | 19.7% | 12.1% | 79.4% | 74.5% | 49.9% | 43.3% | 48.4%
2 | Cc1[nH]c2ccccc2c1CN(C)C | 35.9% | 29.2% | -17.6% | 33.5% | 32.2% | 160% | 142% | 57.8% | 92% | 160%
3 | O=C1C=C2C(=CCOC2O)O1 (stereo not given) | 27.1% | 36.5% | 33.3% | 49.8% | 56.1% | 76.6% | 40.8% | 41.5% | 23.3% | 20.4%
4 | CN(CC[C@H](N)CC(=O)N[C@H]1C=C[C@H](n2ccc(N)nc2=O)O[C@@H]1C(=O)O)C(=N)N | -4.1% | -11.2% | -11% | 11.5% | 3% | 87% | 98.8% | 94.7% | 70.8% | 54.5%
5 | COc1ccc2c(c1)[C@]13CCCC[C@@H]1[C@H](C2)N(C)CC3 | 24.6% | 9.8% | 0% | 15.9% | 3.3% | 119% | 95.3% | 101% | 78.3% | 70.2%
6 | CC(=O)O[C@@H]1C[C@H]2C(C)(C)C(=O)C=C[C@]2(C)[C@H]2CC[C@]3(C)C(=CC(=O)O[C@H]3c3ccoc3)[C@@]21C | -21.4% | 8.6% | 12.2% | 39.4% | -18.1% | 106% | 99.1% | 95.1% | 128% | 56.1%
7 | CC1(C)C2C[C@@H](O)[C@]3(C)C(CC[C@@]4(C)[C@H](c5ccoc5)OC(=O)[C@H]5O[C@]543)[C@@]2(C)[C@@H](O)C[C@H]1O (stereo not given in full) | 27.2% | -12% | 0% | 52.9% | -1.9% | 119% | 98.9% | 100% | 163% | 95%
8 | Oc1ccc(Cl)cc1Cc1cc(Cl)ccc1O | 24.2% | 24.9% | 18.8% | 16.3% | 18.9% | 128% | 107% | 101% | 10% | 5.9%
9 | C#CCN(C)[C@H](C)Cc1ccccc1 | -21.4% | 2.7% | 26.7% | -20% | 21.9% | 82.8% | 97.3% | 118% | 74.9% | 117%
10 | COc1ccc2c(c1)[nH]c1c(C)nccc12 | 16.2% | 14.8% | 8% | 7.9% | 20.5% | 109% | 137% | 111% | 72.3% | 94.3%
11 | CN(C)[C@@H]1C(=O)C(C(N)=O)=C(O)[C@@]2(O)C(=O)C3=C(O)c4c(O)cccc4[C@@](C)(O)[C@H]3[C@H](O)[C@@H]12 | -0.8% | -0.3% | -5.7% | -15.6% | 3.4% | 83.4% | 92% | 98.6% | 106% | 108%
12 | O=P1(NCCCl)OCCCN1CCCl (stereo not given) | -12.9% | -23.8% | 0% | -18.7% | 5.9% | 88.5% | 94% | 87.8% | 86.3% | 125%
13 | Oc1cccc2cccnc12 [Benzoic acid, 2-hydroxy-, compd. with 8-quinolinol (1:1)] | -11% | -16.6% | 23.7% | 40.6% | 44.7% | 130% | 122% | 63.3% | 36.1% | 35%
14 | CN[C@@H]1[C@@H](O)[C@@H](O[C@@H]2[C@@H](O)[C@H](O[C@H]3O[C@H](CN)CC[C@H]3N)[C@@H](N)C[C@H]2N)OC[C@]1(C)O.CN[C@@H]1[C@@H](O)[C@@H](O[C@@H]2[C@@H](O)[C@H](O[C@H]3O[C@H]([C@@H](C)N)CC[C@H]3N)[C@@H](N)C[C@H]2N)OC[C@]1(C)O.CN[C@@H]1[C@@H](O)[C@@H](O[C@@H]2[C@@H](O)[C@H](O[C@H]3O[C@H]([C@@H](C)NC)CC[C@H]3N)[C@@H](N)C[C@H]2N)OC[C@]1(C)O | 0.3% | -29.5% | -4.2% | 14.1% | 10% | 146% | 97.9% | 95.1% | 105% | 95.5%
15 | COC[C@]12CN(C=O)[C@@H]3[C@@H]4[C@H](OC)[C@H]1[C@@]3([C@@H](OC)C[C@H]2O)[C@@H]1C[C@@]2(O)[C@H](OC(=O)c3ccccc3)[C@@H]1[C@]4(OC(C)=O)[C@@H](O)[C@@H]2OC | 20.7% | 0% | -0.8% | 45.8% | -4.8% | 128% | 84.4% | 116% | 113% | 80%
16 | CC(C)C[C@H](CN)CC(=O)O | -34.9% | -22.9% | -6.9% | -12.5% | -2.3% | 102% | 82.6% | 116% | 121% | 109%
17 | CN(C)Cc1c[nH]c2ccccc12 | 3.2% | 20.6% | 21.7% | 20.5% | 20.5% | 78.7% | 80.8% | 125% | 108% | 96.2%
18 | C[C@@H]1NCCc2cc(O)c(O)cc21 | 6.9% | 15.5% | 8% | 25.5% | 29.5% | 127% | 120% | 98.6% | 119% | 140%
19 | CN(N)C=O | 1.8% | 8.3% | 8% | 4.6% | 6.1% | 79.6% | 86.7% | 117% | 116% | 90.4%
20 | C[C@H](N)[C@H](O)c1ccccc1 | -9.8% | 4.7% | 32.1% | 5.8% | 12.2% | 103% | 128% | 131% | 114% | 118%

Row | SMILES | loss of total cells (Human fetal astrocytes [1]; 1.39 µM) | loss of total cells (Human fetal astrocytes [1]; 2.78 µM) | loss of total cells (Human fetal astrocytes [1]; 5.56 µM) | loss of total cells (Human fetal astrocytes [1]; 11.11 µM) | loss of total cells (Human fetal astrocytes [1]; 22.22 µM) | synaptosome phagocytosis (Human fetal astrocytes [2]; 1.39 µM) | synaptosome phagocytosis (Human fetal astrocytes [2]; 2.78 µM) | synaptosome phagocytosis (Human fetal astrocytes [2]; 5.56 µM) | synaptosome phagocytosis (Human fetal astrocytes [2]; 11.11 µM) | synaptosome phagocytosis (Human fetal astrocytes [2]; 22.22 µM)
21 | CC(C)c1c(CN(C)C(C)Cc2ccccc2)n(C)n(-c2ccccc2)c1=O (stereo not given) | 1.8% | 8.3% | 2.9% | -2.1% | -3% | 110% | 117% | 85.2% | 134% | 131%
22 | COc1cc2occc2c2oc(=O)ccc12 | -0.4% | 18.6% | 1.5% | 46.5% | -13.7% | 91.5% | 135% | 80.9% | 113% | 96%
23 | CN(C)C(=S)SSC(=S)N(C)C [Thiram Thiram Tuex TMTD TNTD TUEX Heryl Tmtds Tuads Tutan] | 5.6% | -37.3% | 19.3% | 23.3% | 40.2% | 54% | 31.2% | 38.8% | 37.6% | 50.5%
24 | C/C=C(\C)C(=O)O[C@H]1C[C@@H](OC(C)=O)[C@@]2(C(=O)OC)CO[C@H]3[C@@H](O)[C@@](C)([C@]45O[C@@]4(C)[C@@H]4C[C@H]5O[C@@H]5OC=C[C@@]54O)[C@H]4[C@]1(CO[C@]4(O)C(=O)OC)[C@@H]32 [Azadirachtin A] | -9.8% | -2.5% | 16.8% | 2% | 17.8% | 117% | 145% | 106% | 133% | 144%
25 | COC1=C[C@@H]2[C@@H]3Cc4ccc(OC)c(O)c4[C@]2(CCN3C)CC1=O | 3.2% | -1.8% | 11.6% | 8.8% | 2.3% | 70.8% | 97.2% | 73.3% | 51.8% | 88.4%
26 | C[C@@H]1O[C@@H](O[C@H]2C[C@@H](O)[C@]3(CO)[C@H]4[C@H](O)C[C@]5(C)[C@@H](C6=CC(=O)OC6)CC[C@]5(O)[C@@H]4CC[C@]3(O)C2)[C@H](O)[C@H](O)[C@H]1O | 38.9% | 20% | 9.8% | 45.8% | 31.3% | 92.1% | 52.9% | 39.9% | 25.8% | 32%
27 | CCC1(CC)C(=O)C=CNC1=O | 5.4% | 1.8% | 5.8% | -9.6% | 19.7% | 70.8% | 96.4% | 84.4% | 99.3% | 89.8%
28 | C[C@]12CC[C@H](Cl)C[C@@H]1CC[C@@H]1[C@@H]2CC[C@]2(C)C(=O)CC[C@@H]12 [3beta-CHLOROANDROSTANONE] | -20.7% | -13.3% | 33.6% | 3.2% | 27% | 90% | 87.9% | 98.5% | 98.1% | 122%
29 | CN1CC[C@@]2(C)c3cc(O)ccc3N(C)[C@@H]12 | 18.4% | 6.9% | 7.2% | 14.6% | 22% | 126% | 94.5% | 92.7% | 121% | 69.5%
30 | O=C1CN=C(c2ccccc2Cl)c2cc([N+](=O)[O-])ccc2N1 | -21.4% | -2% | 26% | -13.5% | -16.7% | 92.5% | 106% | 136% | 83.4% | 98.4%
31 | N#C/C(=C\c1ccc(O)cc1)C(=O)O [alpha-CYANO-4-HYDROXYCINNAMIC ACID] | 16.2% | 8.3% | -0.7% | 10.5% | 9.8% | 96.3% | 118% | 119% | 101% | 128%
32 | N#C[C@H](O[C@@H]1O[C@H](CO[C@@H]2O[C@H](CO)[C@@H](O)[C@H](O)[C@H]2O)[C@@H](O)[C@H](O)[C@H]1O)c1ccccc1 | -15.6% | 6.9% | 4.4% | 19.6% | 5.9% | 137% | 122% | 123% | 123% | 132%
33 | C[C@]12CCC(=O)C[C@@H]1CC[C@@H]1[C@@H]2CC[C@]2(C)C(=O)CC[C@@H]12 [5alpha-ANDROSTAN-3,17-DIONE] | 16.2% | 19.9% | 6.5% | 13.8% | 16.7% | 80.8% | 120% | 83.3% | 112% | 114%
34 | O=C1C[C@@H]2OCC=C3CN4CC[C@]56c7ccccc7N1[C@H]5[C@H]2[C@H]3C[C@H]46 | 11% | -18% | -9.1% | 12.4% | -1.5% | 85.6% | 87.9% | 85.1% | 104% | 103%
35 | CC(=O)Oc1ccc(/C=C/c2cc(OC(C)=O)cc(OC(C)=O)c2)cc1 | -8.2% | 3.2% | 1.5% | 17.6% | 19.3% | 55.6% | 88.9% | 109% | 68.9% | 87.5%
36 | Cc1ccc(C[N+](C)(C)C)o1 | -21.3% | 4% | 0.7% | 11.5% | 4.4% | 96.6% | 90.9% | 80.2% | 145% | 107%
37 | Cc1ccc(/N=C/N(C)/C=N/c2ccc(C)cc2C)c(C)c1 | -39.5% | -15.9% | -9.9% | 28.5% | 6.5% | 98.8% | 80.5% | 73.8% | 130% | 102%
38 | CC(=O)O[C@H]1C[C@@H](OC(C)=O)C(C)(C)C2C[C@@H](OC(C)=O)[C@]3(C)C(CC[C@@]4(C)[C@H](c5ccoc5)C(=O)[C@H]5O[C@]543)[C@]21C (stereo not given in full) | 1.8% | 2% | 32.1% | -20% | 2.6% | 128% | 118% | 167% | 130% | 140%
39 | COc1cc2c(cc1OC)[C@@H]1C(=O)c3ccc4oc(C(C)C)cc4c3O[C@@H]1CO2 | -7.6% | 17.9% | 6.1% | 9.7% | 18.1% | 83.7% | 110% | 96.3% | 70.9% | 28.4%
